Test results published in the supplement of paper PMC10849652.
This is one part of the list.

Amino acid sequences for entries named in this document (tags omitted). A change or cut given only in a name is not applied to a line headed by its entry.
UniProt Q9Y2I8: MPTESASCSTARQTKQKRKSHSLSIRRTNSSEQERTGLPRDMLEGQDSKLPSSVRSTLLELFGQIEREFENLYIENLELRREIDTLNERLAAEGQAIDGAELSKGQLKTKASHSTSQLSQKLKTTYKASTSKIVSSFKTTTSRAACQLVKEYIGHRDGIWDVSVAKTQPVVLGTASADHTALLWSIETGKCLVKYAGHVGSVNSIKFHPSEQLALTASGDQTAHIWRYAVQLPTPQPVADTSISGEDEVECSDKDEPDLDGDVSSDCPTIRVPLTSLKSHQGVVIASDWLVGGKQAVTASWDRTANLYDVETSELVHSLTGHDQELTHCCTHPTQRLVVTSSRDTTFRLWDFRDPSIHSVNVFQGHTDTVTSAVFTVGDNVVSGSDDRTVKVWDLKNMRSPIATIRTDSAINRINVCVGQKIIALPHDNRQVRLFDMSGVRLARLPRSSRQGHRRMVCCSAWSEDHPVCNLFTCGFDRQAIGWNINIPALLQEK
UniProt O75351, whole entry, looked up: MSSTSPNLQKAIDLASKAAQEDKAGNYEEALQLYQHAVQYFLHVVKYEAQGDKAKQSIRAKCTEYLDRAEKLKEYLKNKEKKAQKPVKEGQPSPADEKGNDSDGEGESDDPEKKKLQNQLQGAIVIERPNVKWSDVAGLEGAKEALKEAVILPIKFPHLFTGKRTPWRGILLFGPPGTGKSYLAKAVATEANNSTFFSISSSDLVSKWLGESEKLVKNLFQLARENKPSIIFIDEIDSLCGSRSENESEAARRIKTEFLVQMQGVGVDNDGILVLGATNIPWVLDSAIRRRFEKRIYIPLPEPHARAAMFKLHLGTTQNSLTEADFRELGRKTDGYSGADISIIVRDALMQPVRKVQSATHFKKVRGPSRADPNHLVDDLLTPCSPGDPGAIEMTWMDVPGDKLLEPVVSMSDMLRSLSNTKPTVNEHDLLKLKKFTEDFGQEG
UniProt Q9UK41: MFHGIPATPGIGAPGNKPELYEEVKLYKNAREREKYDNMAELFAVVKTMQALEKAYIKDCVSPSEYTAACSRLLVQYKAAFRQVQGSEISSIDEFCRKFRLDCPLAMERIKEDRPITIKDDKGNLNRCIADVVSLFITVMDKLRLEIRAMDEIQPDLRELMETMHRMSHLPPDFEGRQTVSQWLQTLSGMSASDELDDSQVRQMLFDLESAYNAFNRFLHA
UniProt O94967: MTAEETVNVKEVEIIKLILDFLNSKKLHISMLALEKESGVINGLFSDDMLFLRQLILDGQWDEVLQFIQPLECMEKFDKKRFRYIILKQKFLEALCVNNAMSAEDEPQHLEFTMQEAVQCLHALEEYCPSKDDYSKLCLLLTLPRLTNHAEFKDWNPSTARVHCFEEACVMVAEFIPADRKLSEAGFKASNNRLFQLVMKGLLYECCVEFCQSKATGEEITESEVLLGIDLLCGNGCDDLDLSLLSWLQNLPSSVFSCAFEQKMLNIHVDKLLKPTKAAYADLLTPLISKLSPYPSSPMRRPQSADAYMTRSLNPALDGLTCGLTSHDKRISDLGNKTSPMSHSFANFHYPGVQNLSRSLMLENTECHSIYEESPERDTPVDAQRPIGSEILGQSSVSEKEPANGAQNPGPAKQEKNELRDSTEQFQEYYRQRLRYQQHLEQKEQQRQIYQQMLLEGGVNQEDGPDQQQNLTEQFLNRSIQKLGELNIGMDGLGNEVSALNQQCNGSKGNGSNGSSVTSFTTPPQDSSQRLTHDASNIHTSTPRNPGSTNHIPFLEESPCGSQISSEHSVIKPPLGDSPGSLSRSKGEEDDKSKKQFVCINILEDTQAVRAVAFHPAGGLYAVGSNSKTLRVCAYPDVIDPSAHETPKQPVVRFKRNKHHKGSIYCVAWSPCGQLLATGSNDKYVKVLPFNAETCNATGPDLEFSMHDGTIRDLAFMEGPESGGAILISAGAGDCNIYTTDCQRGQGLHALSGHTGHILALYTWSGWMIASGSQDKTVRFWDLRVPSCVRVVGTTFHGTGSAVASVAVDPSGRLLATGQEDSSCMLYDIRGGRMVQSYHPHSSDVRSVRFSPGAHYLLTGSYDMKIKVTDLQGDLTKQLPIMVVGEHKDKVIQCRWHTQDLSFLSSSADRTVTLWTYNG
UniProt O00308: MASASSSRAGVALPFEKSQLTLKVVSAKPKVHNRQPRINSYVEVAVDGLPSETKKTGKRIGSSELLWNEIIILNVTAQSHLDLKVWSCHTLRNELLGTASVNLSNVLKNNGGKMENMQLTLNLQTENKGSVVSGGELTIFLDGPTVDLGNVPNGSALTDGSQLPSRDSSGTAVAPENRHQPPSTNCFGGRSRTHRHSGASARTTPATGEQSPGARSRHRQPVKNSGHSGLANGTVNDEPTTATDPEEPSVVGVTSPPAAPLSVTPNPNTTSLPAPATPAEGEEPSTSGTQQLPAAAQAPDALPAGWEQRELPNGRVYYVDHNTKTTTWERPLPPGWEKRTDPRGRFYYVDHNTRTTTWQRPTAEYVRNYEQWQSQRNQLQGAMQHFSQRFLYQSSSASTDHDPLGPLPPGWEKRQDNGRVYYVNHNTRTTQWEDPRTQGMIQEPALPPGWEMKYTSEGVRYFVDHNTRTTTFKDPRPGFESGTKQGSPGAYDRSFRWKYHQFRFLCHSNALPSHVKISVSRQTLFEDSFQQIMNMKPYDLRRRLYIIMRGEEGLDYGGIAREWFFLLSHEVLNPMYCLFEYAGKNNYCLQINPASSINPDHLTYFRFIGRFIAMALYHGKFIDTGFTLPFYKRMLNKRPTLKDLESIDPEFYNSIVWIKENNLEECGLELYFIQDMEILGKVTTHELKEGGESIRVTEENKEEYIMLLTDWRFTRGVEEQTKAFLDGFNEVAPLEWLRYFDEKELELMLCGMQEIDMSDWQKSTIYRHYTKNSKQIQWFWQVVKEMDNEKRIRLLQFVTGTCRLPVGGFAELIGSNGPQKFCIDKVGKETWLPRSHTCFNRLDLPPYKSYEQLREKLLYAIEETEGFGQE
UniProt Q9P1Q0: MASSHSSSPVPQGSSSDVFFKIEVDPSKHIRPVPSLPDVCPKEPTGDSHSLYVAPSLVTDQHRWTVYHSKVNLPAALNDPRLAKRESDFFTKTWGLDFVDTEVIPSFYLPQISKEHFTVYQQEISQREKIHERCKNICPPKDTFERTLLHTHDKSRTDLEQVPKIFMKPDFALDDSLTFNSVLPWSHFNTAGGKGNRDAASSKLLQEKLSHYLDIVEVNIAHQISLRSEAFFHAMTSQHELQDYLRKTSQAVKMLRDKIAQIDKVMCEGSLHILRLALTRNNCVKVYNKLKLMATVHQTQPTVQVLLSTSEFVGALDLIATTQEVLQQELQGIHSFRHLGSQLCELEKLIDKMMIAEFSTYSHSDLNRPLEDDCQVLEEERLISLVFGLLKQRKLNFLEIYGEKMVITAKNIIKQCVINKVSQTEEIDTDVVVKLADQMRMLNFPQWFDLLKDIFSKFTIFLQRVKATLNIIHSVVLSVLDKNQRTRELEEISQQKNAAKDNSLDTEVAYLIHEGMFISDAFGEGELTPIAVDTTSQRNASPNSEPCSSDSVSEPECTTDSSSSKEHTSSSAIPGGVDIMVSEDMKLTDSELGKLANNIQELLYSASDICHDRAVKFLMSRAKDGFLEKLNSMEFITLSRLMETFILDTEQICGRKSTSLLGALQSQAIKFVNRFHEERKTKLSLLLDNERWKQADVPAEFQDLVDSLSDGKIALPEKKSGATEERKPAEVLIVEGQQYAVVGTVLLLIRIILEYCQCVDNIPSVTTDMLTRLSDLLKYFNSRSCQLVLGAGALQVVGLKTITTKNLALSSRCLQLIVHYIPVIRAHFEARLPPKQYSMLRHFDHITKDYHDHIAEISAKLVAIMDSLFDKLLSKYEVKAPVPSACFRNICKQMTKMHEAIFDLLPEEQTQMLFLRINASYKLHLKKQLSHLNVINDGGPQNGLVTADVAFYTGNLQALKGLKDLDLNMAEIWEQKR
UniProt Q9BUR4: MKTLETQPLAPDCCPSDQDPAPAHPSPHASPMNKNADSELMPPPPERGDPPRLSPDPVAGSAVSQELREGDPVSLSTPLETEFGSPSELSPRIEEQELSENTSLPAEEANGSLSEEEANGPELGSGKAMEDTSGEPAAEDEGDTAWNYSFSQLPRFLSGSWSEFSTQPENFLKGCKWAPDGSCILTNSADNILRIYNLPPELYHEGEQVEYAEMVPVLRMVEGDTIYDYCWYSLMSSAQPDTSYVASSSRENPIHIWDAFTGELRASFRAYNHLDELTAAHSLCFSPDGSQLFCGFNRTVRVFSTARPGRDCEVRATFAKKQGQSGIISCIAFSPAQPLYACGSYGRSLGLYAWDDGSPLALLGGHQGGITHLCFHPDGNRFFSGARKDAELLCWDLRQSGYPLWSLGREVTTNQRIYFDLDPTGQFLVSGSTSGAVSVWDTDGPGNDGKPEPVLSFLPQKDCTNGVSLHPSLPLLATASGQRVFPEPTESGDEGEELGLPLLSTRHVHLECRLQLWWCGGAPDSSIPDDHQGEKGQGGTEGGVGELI
UniProt P98170, whole entry, looked up: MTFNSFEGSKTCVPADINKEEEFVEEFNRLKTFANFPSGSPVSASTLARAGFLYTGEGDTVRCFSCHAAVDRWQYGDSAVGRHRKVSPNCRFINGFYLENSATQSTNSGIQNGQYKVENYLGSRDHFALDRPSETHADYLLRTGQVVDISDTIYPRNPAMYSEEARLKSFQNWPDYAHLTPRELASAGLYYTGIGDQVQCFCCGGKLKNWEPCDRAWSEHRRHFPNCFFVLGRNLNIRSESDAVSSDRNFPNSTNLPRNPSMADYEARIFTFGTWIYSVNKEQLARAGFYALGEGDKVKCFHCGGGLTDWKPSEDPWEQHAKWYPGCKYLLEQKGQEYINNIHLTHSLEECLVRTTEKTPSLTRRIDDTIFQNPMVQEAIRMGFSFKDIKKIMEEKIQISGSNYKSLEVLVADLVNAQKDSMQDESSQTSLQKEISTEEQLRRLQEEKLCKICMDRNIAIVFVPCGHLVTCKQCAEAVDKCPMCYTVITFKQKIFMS
UniProt Q6UXN9, whole entry, looked up: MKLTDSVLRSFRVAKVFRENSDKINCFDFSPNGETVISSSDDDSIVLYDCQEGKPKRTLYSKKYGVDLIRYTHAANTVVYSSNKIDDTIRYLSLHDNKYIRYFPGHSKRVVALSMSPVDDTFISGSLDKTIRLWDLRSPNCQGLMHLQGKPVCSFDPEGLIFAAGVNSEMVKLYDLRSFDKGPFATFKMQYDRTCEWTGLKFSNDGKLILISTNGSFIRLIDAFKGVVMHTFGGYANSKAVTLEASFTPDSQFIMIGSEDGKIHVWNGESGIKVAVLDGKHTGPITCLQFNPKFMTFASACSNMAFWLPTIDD
UniProt Q4G0F5, whole entry, looked up: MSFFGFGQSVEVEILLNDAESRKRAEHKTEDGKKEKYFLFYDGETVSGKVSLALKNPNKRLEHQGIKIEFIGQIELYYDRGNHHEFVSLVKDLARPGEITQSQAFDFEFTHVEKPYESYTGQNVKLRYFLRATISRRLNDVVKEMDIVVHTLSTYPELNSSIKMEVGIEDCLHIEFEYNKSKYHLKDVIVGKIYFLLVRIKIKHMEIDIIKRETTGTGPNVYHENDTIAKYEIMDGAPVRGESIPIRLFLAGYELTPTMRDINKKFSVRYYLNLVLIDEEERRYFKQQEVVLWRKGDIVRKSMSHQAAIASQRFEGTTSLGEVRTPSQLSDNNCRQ
UniProt Q7Z5U6: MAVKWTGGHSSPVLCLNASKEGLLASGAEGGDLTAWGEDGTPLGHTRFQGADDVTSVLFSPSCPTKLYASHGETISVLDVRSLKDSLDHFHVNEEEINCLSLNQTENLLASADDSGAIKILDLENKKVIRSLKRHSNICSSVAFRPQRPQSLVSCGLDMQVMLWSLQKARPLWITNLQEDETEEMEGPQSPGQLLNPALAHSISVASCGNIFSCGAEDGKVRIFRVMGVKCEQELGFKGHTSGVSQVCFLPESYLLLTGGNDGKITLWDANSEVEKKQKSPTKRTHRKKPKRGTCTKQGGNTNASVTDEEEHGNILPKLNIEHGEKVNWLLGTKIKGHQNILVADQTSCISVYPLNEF
UniProt Q96AX1: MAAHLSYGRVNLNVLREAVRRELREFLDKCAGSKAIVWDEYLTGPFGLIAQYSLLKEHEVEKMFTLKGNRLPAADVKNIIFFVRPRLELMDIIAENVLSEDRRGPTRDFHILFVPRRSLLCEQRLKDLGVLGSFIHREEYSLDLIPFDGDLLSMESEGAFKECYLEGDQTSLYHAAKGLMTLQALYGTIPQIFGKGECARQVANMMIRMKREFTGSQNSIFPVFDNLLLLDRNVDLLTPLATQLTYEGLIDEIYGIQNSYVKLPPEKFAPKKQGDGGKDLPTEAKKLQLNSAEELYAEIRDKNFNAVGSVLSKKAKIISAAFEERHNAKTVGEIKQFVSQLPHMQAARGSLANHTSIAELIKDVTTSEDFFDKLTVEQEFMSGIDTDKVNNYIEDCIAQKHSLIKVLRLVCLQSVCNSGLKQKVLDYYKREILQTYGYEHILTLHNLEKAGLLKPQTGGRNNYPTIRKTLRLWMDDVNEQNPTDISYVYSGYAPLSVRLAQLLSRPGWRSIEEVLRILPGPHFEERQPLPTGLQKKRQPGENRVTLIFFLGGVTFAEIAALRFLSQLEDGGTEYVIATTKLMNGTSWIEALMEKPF

Tests used:
Test in all cases: log2 fold change, soluble protein after heating vs DMSO (PISA); higher = thermal stabilisation; K562 lysate, 10 uM; active = over 0.2 and 3.5 SD of the protein, either way, in both replicates (recomputed)
[1] = compound: CN1CC[C@H](c2c(O)cc(O)c3c(=O)cc(-c4ccccc4Cl)oc23)[C@H](O)C1 [alvocidib]
Procedure, shortened: (§1)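 K562 pellets were dounce-homogenised in PBS pH 7.4 with 1 mM MgCl2, and the crude extract at 1 mg/mL protein was treated with 10 μM compound for 30 min. Aliquots were heated for 3 min across 48°C-58°C, pooled, and brought to 0.5% NP-40 at 4°C; soluble protein was the supernatant after 21,000xg for 90 min. Soluble protein was quantified by TMTpro 16plex LC-MS/MS with channel sums equalised, and reported as log2 fold change in thermal stability against DMSO controls, with values from duplicates.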

[2] = compound: CN1CCc2c(c3ccccc3n2Cc2ccc(C(=O)NO)cc2)C1 [Tubastatin A]
Procedure, shortened: as §1

[3] = compound: CNC(=O)C1=CC=CC=C1NC2=NC(=NC=C2Cl)NC3=C(C=C(C=C3)N4CCOCC4)OC
Procedure, shortened: as §1

[4] = compound: CNC(=O)c1ccc(Nc2ncc(C(F)(F)F)c(NCc3nccnc3N(C)S(C)(=O)=O)n2)cc1 [defactinib]
Procedure, shortened: as §1

[5] = compound: CNc1nc(-c2ccc3c(N)n[nH]c3c2)cc(N2C[C@@H](C(=O)NC3CCCCC3)CC[C@H]2C)n1
Procedure, shortened: as §1

[6] = compound: COC(=O)N[C@@H](C)CNc1nccc(-c2cn(C(C)C)nc2-c2cc(Cl)cc(NS(C)(=O)=O)c2F)n1 [encorafenib]
Procedure, shortened: as §1

[7] = compound: COC(=O)[C@H](CCSC)NC(=O)C1=C(C=C(C=C1)NC[C@H](CS)N)C2=CC=CC=C2
Procedure, shortened: as §1

[8] = compound: COc1cc(Nc2ncc3c(n2)-c2ccc(Cl)cc2C(c2c(F)cccc2OC)=NC3)ccc1C(=O)O [alisertib]
Procedure, shortened: as §1

[9] = compound: COc1cc2nc(-c3cc(F)ccc3O)nc(N[C@@H]3CNC[C@H]3C(C)(C)O)c2cc1OC
Procedure, shortened: as §1

[10] = compound: COc1cc2ncnc(Nc3ccc(F)c(Cl)c3)c2cc1OCCCN1CCOCC1 [gefitinib]
Procedure, shortened: as §1

| Target | log2 fold change [1] | log2 fold change [2] | log2 fold change [3] | log2 fold change [4] | log2 fold change [5] | log2 fold change [6] | log2 fold change [7] | log2 fold change [8] | log2 fold change [9] | log2 fold change [10] |
| --- | --- | --- | --- | --- | --- | --- | --- | --- | --- | --- |
| WDR37 isoform 2 (UniProt Q9Y2I8) | inactive: 0.074 | inactive: -0.017 | inactive: 0.014 | inactive: -0.021 | inactive: 0.066 | inactive: 0 | inactive: 0.054 | inactive: -0.027 | inactive: 0.074 | inactive: 0.026 |
| VPS4B (UniProt O75351) | inactive: 0.027 | inactive: -0.099 | inactive: -0.043 | inactive: -0.002 | inactive: 0.005 | inactive: 0.04 | inactive: 0.081 | inactive: -0.017 | inactive: -0.018 | inactive: 0.021 |
| VPS50 (UniProt Q96JG6) | inactive: 0.027 | inactive: -0.026 | inactive: -0.012 | inactive: 0.008 | inactive: -0.032 | inactive: 0.029 | inactive: 0.038 | inactive: -0.025 | inactive: 0.025 | inactive: 0.004 |
| WDR62 isoform 4 (UniProt O43379) | inactive: 0.018 | inactive: -0.132 | inactive: 0.012 | inactive: -0.007 | inactive: 0.048 | inactive: 0.054 | inactive: -0.01 | inactive: 0.005 | inactive: 0.052 | inactive: 0.013 |
| WDR61 (UniProt Q9GZS3) | inactive: -0.02 | inactive: -0.083 | inactive: 0.009 | inactive: -0.03 | inactive: -0.026 | inactive: -0.007 | inactive: -0.001 | inactive: 0.004 | inactive: 0.002 | inactive: -0.017 |
| VPS35L (UniProt Q7Z3J2) | inactive: 0 | inactive: -0.083 | inactive: 0.015 | inactive: 0.036 | inactive: -0.013 | inactive: 0.014 | inactive: 0.006 | inactive: -0.034 | inactive: -0.023 | inactive: -0.076 |
| VPS28 (UniProt Q9UK41) | inactive: -0.018 | inactive: -0.034 | inactive: 0 | inactive: -0.018 | inactive: -0.078 | inactive: 0.046 | inactive: 0.012 | inactive: -0.022 | inactive: 0 | inactive: 0.034 |
| WDR77 (UniProt Q9BQA1) | active: 0.242 | inactive: 0.004 | inactive: 0.002 | inactive: -0.012 | inactive: 0.012 | inactive: 0.055 | inactive: -0.07 | inactive: -0.031 | inactive: -0.024 | inactive: -0.003 |
| VKORC1 (UniProt Q9BQB6) | inactive: 0 | inactive: -0.001 | inactive: -0.048 | inactive: 0.023 | inactive: 0.108 | inactive: 0.023 | inactive: -0.006 | inactive: 0.034 | inactive: -0.016 | inactive: 0.002 |
| WDR13 (UniProt Q9H1Z4) | inactive: 0.003 | inactive: 0.013 | inactive: 0.013 | inactive: 0.023 | inactive: -0.034 | inactive: 0.029 | inactive: -0.072 | inactive: 0.04 | inactive: -0.054 | inactive: 0.048 |
| VPS26A (UniProt O75436) | inactive: 0.001 | inactive: 0.016 | inactive: -0.007 | inactive: -0.001 | inactive: 0.018 | inactive: -0.001 | inactive: -0.003 | inactive: 0.006 | inactive: 0.021 | inactive: 0.012 |
| WDR47 (UniProt O94967) | inactive: 0.054 | inactive: -0.012 | inactive: 0.085 | inactive: 0.019 | inactive: -0.047 | inactive: -0.035 | inactive: -0.002 | inactive: -0.058 | inactive: -0.039 | inactive: -0.002 |
| WDR11 (UniProt Q9BZH6) | inactive: -0.1 | inactive: 0.018 | inactive: -0.018 | inactive: -0.13 | inactive: 0.002 | inactive: 0.047 | inactive: 0.012 | inactive: 0.079 | inactive: 0.012 | inactive: 0.109 |
| WWP2 (UniProt O00308) | inactive: -0.037 | inactive: -0.09 | inactive: 0.001 | inactive: -0.177 | inactive: 0.095 | inactive: 0.021 | inactive: 0.001 | inactive: 0.008 | inactive: -0.001 | inactive: 0.01 |
| VPS54 (UniProt Q9P1Q0) | inactive: -0.07 | inactive: 0 | inactive: 0.059 | inactive: -0.07 | inactive: 0.013 | inactive: -0.001 | inactive: 0.105 | inactive: -0.024 | inactive: 0.071 | inactive: 0.089 |
| WRNIP1 (UniProt Q96S55) | inactive: 0.005 | inactive: -0.229 | inactive: 0.01 | inactive: 0.01 | inactive: -0.044 | inactive: 0.024 | active: 0.222 | inactive: -0.022 | inactive: -0.014 | inactive: 0.033 |
| WASF2 (UniProt Q9Y6W5) | inactive: 0.014 | inactive: -0.016 | inactive: -0.006 | inactive: 0.003 | inactive: -0.021 | inactive: 0.017 | inactive: -0.097 | inactive: -0.012 | inactive: -0.01 | inactive: 0.006 |
| WDR1 (UniProt O75083) | inactive: 0.047 | inactive: 0.016 | inactive: -0.029 | inactive: -0.008 | inactive: -0.027 | inactive: -0.025 | inactive: 0.053 | inactive: 0.005 | inactive: -0.005 | inactive: -0.038 |
| WRAP53 (UniProt Q9BUR4) | inactive: -0.073 | inactive: -0.022 | inactive: -0.016 | inactive: -0.05 | inactive: 0.093 | inactive: -0.045 | inactive: 0.002 | inactive: 0.071 | inactive: -0.031 | inactive: -0.006 |
| VPS51 (UniProt Q9UID3) | inactive: 0.052 | inactive: -0.008 | inactive: 0.017 | inactive: 0.028 | inactive: -0.015 | inactive: 0.018 | inactive: 0.015 | inactive: 0 | inactive: -0.001 | inactive: 0.027 |
| WBP11 (UniProt Q9Y2W2) | inactive: -0.005 | inactive: 0.019 | inactive: 0.007 | inactive: 0.01 | inactive: 0.02 | inactive: 0.027 | inactive: 0.016 | inactive: 0.027 | inactive: -0.032 | inactive: -0.01 |
| XIAP (UniProt P98170) | inactive: -0.028 | inactive: 0.013 | inactive: -0.019 | inactive: -0.045 | inactive: 0.016 | inactive: -0.003 | inactive: 0.001 | inactive: -0.05 | inactive: -0.007 | inactive: -0.021 |
| WDR82 (UniProt Q6UXN9) | inactive: 0.014 | inactive: 0.011 | inactive: 0.019 | inactive: -0.005 | inactive: -0.025 | inactive: -0.017 | inactive: 0.008 | inactive: 0.002 | inactive: 0.017 | inactive: -0.043 |
| VWDE (UniProt Q8N2E2) | inactive: -0.037 | inactive: 0.048 | inactive: -0.046 | inactive: 0.064 | inactive: 0.055 | inactive: 0.013 | inactive: -0.047 | inactive: 0.006 | inactive: 0.07 | inactive: 0.001 |
| VPS11 (UniProt Q9H270) | inactive: 0.039 | inactive: -0.113 | inactive: 0.023 | inactive: 0.022 | inactive: -0.026 | inactive: 0.016 | inactive: -0.096 | inactive: 0.002 | inactive: 0.019 | inactive: -0.007 |
| VPS26B (UniProt Q4G0F5) | inactive: -0.036 | inactive: -0.011 | inactive: -0.035 | inactive: -0.001 | inactive: -0.021 | inactive: 0.034 | inactive: -0.027 | inactive: -0.01 | inactive: 0.023 | inactive: -0.005 |
| WDR6 (UniProt Q9NNW5) | inactive: -0.009 | inactive: -0.077 | inactive: -0.004 | inactive: 0.003 | inactive: -0.011 | inactive: 0.015 | inactive: 0.031 | inactive: 0.005 | inactive: 0.016 | inactive: -0.013 |
| VPS72 (UniProt Q15906) | inactive: 0 | inactive: 0.028 | inactive: 0.041 | inactive: -0.078 | inactive: -0.02 | inactive: -0.016 | inactive: -0.134 | inactive: -0.058 | inactive: -0.017 | inactive: -0.108 |
| WDR53 (UniProt Q7Z5U6) | inactive: -0.024 | inactive: 0.062 | inactive: 0.065 | inactive: 0.115 | inactive: 0.226 | inactive: 0.011 | inactive: -0.044 | inactive: 0.111 |  | inactive: -0.232 |
| VPS33A (UniProt Q96AX1) | inactive: -0.01 | inactive: -0.077 | inactive: 0.033 | inactive: 0.012 | inactive: -0.011 | inactive: 0.028 | inactive: -0.044 | inactive: 0.021 | inactive: -0.022 | inactive: 0.027 |

Some entries already given, limited to log2 fold change [3] and log2 fold change [8].
Target | log2 fold change [3] | log2 fold change [8]
WDR82 (UniProt Q6UXN9) | inactive: 0.019 | inactive: 0.002
VWDE (UniProt Q8N2E2) | inactive: -0.046 | inactive: 0.006
